Experimental data taken from patent US20210292741A1, “COMBINATION THERAPEUTICS USING TUMOR TREATING FIELDS (TTFIELDS)” (THE BOARD OF REGENTS OF THE UNIVERSITY OF TEXAS SYSTEM, priority 2020, published 2021).
At least one compound was matched to its structure with a doubt left.

System: H1299, A549, H157, and H4006 cells
Assay: clonogenic survival assay, TTFields combined with E2F and CDK 4/6 inhibitors
Assay type: cell-based, Human
Details: single inhibitor plus TTFields, Highest Single Agent approach

**Q.** With `CCN1CCN(Cc2ccc(Nc3ncc(F)c(-c4cc(F)c5nc(C)n(C(C)C)c5c4)n3)nc2)CC1` [abemaciclib] as the compound, how does the “cell killing in combination with TTFields as compared to TTFields alone” value read?
**A.** The value was “enhanced cell killing synergistically”.
